From paper PMC10014883 come the findings set out here.

By UniProt entry, the sequences of proteins in these tests, tags left out.
UniProt P58462: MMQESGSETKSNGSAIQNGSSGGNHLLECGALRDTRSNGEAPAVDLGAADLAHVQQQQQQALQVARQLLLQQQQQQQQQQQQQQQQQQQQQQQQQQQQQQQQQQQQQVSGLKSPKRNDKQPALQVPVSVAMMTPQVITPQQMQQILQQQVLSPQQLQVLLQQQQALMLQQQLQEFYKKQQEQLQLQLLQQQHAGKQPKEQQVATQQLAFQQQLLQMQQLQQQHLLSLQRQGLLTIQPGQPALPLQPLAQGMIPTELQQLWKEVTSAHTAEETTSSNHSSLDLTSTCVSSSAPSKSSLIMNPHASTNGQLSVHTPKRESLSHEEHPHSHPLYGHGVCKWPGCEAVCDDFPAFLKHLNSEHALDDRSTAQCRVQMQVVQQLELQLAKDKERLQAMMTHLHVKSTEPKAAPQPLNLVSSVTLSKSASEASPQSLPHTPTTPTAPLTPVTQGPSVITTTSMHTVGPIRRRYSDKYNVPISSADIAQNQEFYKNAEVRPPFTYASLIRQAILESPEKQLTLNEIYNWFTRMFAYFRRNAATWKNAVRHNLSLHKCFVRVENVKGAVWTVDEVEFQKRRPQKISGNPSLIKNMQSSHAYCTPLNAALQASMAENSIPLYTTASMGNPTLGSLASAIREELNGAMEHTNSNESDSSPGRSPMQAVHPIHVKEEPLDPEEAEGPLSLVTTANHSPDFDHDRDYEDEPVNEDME

No constants are given. Whether binding was seen depends on the method and setting. In cells and extracts the contact can be indirect. Some results given as binding are weak or reduced against the parent protein; the word gives no strength.

The target of this test is FOXP1 (mouse (endogenous in BMDMs)) (UniProt P58462). The experiment in a line: co-IP; lysates of BMDMs after osteoclast induction (Pierce IP Lysis Buffer) immunoprecipitated with anti-FOXP1 antibody or normal rabbit IgG and protein A-Sepharose; immunoblotting for FOXP1 and BRD9. (In general: A western blot detects proteins with antibodies after separation by electrophoresis.)

B1: Bromodomain-containing protein 9 (BRD9) (protein, UniProt Q3UQU0 1-596)
chain: MGKKHKKHKAEWRSSYEDYTDTPLEKPLKLVLKVGGSEVTELSGSGHDSSYYDDRSDHERERHREKKKKKKKKSEKEKHLDEEERRKRKEEKKRKREKEHCDSEGEADAFDPGKKVEVEPPPDRPVRACRTQPAENESTPIQRLLEHFLRQLQRKDPHGFFAFPVTDAIAPGYSMIIKHPMDFGTMKDKIVANEYKSVTEFKADFKLMCDNAMTYNRPDTVYYKLAKKILHAGFKMMSKAALLGSEDPAAEEPVPEVVPVQVETTKKSKKPSREVISCMFEPEGNACSLTDSTAEEHVLALVEHAADEARDRINRFLPGGKMGYLKKLGDGSLLYSVVNAPEPDADEEETHPVDLSSLSSKLLPGFTTLGFKDERRNKVTFLSSASTALSMQNNSVFGDLKSDEMELLYSAYGDETGVQCALSLQEFVKDAGSYSKKMVDDLLDQITGGDHSRMIFQLKQRRSIPMRPADEMKVGDPLGESGGPVLDFMSMKQYPDVSLDVSMLSSLGKVKKELDHEDSHLNLDETARLLQDLHEAQAERGGSRPSSNLSSLSTASEREHPPPGSPSRLSVGEQPDVAHDPYEFLQSPEPAAPAKN
As for B1, the binding result was “binds”.
